Amino acid sequences for entries named in this document (tags omitted). A change or cut given only in a name is not applied to a line headed by its entry. Chains listed by the source or under a name are the forms on record and can include a tag or linker.
Rab5A(Q79L)-BirA*-HA-MAO (P20339, form named): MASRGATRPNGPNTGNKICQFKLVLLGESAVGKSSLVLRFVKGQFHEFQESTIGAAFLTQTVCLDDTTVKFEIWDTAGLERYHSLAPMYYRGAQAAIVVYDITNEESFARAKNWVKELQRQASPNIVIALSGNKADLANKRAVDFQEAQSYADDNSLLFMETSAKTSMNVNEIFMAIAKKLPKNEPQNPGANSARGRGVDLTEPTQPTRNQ
UniProt P20340: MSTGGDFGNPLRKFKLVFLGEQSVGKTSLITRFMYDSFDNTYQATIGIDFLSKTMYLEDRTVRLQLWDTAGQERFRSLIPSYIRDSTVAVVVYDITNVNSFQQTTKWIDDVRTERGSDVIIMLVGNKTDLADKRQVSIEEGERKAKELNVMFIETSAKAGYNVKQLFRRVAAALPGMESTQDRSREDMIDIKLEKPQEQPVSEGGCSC

In article PMC6639074:

Legend:
Experiment in all cases: proximity labelling; MitoID: GTPase-BirA*-HA-MAO chimera on mitochondria of transiently transfected HEK293T cells, 50 uM biotin 18 h, streptavidin beads, mass spectrometry, biological triplicates; hits by WD scores and volcano plots against the GDP-locked forms
[1] = molecular target: Rab11A(Q69L)-BirA*-HA-MAO (human)
[2] = molecular target: Rab5A(Q79L)-BirA*-HA-MAO (human) (UniProt P20339)
[3] = molecular target: Rab6A(Q72L)-BirA*-HA-MAO (human) (UniProt P20340)

B1: RELCH/KIAA1468 (protein, UniProt Q9P260 1-1216)
chain: MAAMAPGGSGSGGGVNPFLSDSDEDDDEVAATEERRAVLRLGAGSGLDPGSAGSLSPQDPVALGSSARPGLPGEASAAAVALGGTGETPARLSIDAIAAQLLRDQYLLTALELHTELLESGRELPRLRDYFSNPGNFERQSGTPPGMGAPGVPGAAGVGGAGGREPSTASGGGQLNRAGSISTLDSLDFARYSDDGNRETDEKVAVLEFELRKAKETIQALRANLTKAAEHEVPLQERKNYKSSPEIQEPIKPLEKRALNFLVNEFLLKNNYKLTSITFSDENDDQDFELWDDVGLNIPKPPDLLQLYRDFGNHQVTGKDLVDVASGVEEDELEALTPIISNLPPTLETPQPAENSMLVQKLEDKISLLNSEKWSLMEQIRRLKSEMDFLKNEHFAIPAVCDSVQPPLDQLPHKDSEDSGQHPDVNSSDKGKNTDIHLSISDEADSTIPKENSPNSFPRREREGMPPSSLSSKKTVHFDKPNRKLSPAFHQALLSFCRMSADSRLGYEVSRIADSEKSVMLMLGRCLPHIVPNVLLAKREELIPLILCTACLHPEPKERDQLLHILFNLIKRPDDEQRQMILTGCVAFARHVGPTRVEAELLPQCWEQINHKYPERRLLVAESCGALAPYLPKEIRSSLVLSMLQQMLMEDKADLVREAVIKSLGIIMGYIDDPDKYHQGFELLLSALGDPSERVVSATHQVFLPAYAAWTTELGNLQSHLILTLLNKIEKLLREGEHGLDEHKLHMYLSALQSLIPSLFALVLQNAPFSSKAKLHGEVPQIEVTRFPRPMSPLQDVSTIIGSREQLAVLLQLYDYQLEQEGTTGWESLLWVVNQLLPQLIEIVGKINVTSTACVHEFSRFFWRLCRTFGKIFTNTKVKPQFQEILRLSEENIDSSAGNGVLTKATVPIYATGVLTCYIQEEDRKLLVGFLEDVMTLLSLSHAPLDSLKASFVELGANPAYHELLLTVLWYGVVHTSALVRCTAARMFELTLRGMSEALVDKRVAPALVTLSSDPEFSVRIATIPAFGTIMETVIQRELLERVKMQLASFLEDPQYQDQHSLHTEIIKTFGRVGPNAEPRFRDEFVIPHLHKLALVNNLQIVDSKRLDIATHLFEAYSALSCCFISEDLMVNHFLPGLRCLRTDMEHLSPEHEVILSSMIKECEQKVENKTVQEPQGSMSIAASLVSEDTKTKFLNKMGQLTTSGAMLANVFQRKK
With B1 the binding [1] was “binds” and the binding [2] was “binds”.

B2: WDR44/Rab11BP (protein, UniProt Q5JSH3 1-913)
chain: MASESDTEEFYDAPEDVHLGGGYPVGSPGKVGLSTFKETENTAYKVGNESPVQELKQDVSKKIIESIIEESQKVLQLEDDSLDSKGKELSDQATASPIVARTDLSNIPGLLAIDQVLPEESQKAESQNTFEETELELKKCFPSDETCEKPVDETTKLTQTSSTEQLNVLETETEVLNKEAVEVKGGGDVLEPVSSDSLSTKDFAAVEEVAPAKPPRHLTPEPDIVASTKKPVPARPPPPTNFPPPRPPPPSRPAPPPRKRKSELEFETLKTPDIDVPKENITSDSLLTASMASESTVKDSQPSLDLASATSGDKIVTAQENGKAPDGQTVAGEVMGPQRPRSNSGRELTDEEILASVMIKNLDTGEEIPLSLAEEKLPTGINPLTLHIMRRTKEYVSNDAAQSDDEEKLQSQPTDTDGGRLKQKTTQLKKFLGKSVKRAKHLAEEYGERAINKVKSVRDEVFHTDQDDPSSSDDEGMPYTRPVKFKAAHGFKGPYDFDQIKVVQDLSGEHMGAVWTMKFSHCGRLLASAGQDNVVRIWALKNAFDYFNNMRMKYNTEGRVSPSPSQESLSSSKSDTDTGVCSGTDEDPDDKNAPFRQRPFCKYKGHTADLLDLSWSKNYFLLSSSMDKTVRLWHISRRECLCCFQHIDFVTAIAFHPRDDRYFLSGSLDGKLRLWNIPDKKVALWNEVDGQTKLITAANFCQNGKYAVIGTYDGRCIFYDTEHLKYHTQIHVRSTRGRNKVGRKITGIEPLPGENKILVTSNDSRIRLYDLRDLSLSMKYKGYVNSSSQIKASFSHDFTYLVSGSEDKYVYIWSTYHDLSKFTSVRRDRNDFWEGIKAHNAVVTSAIFAPNPSLMLSLDVQSEKSEGNEKSEDAEVLDATPSGIMKTDNTEVLLSADFTGAIKVFVNKRKNVS
B2 was tested, and the binding [1] was “binds”.

B3: EVI5 (protein, UniProt O60447 1-810)
chain: MVTNKMTAAFRNPSGKQVATDKVAEKLSSTLSWVKNTVSHTVSQMASQVASPSTSLHTTSSSTTLSTPALSPSSPSQLSPDDLELLAKLEEQNRLLETDSKSLRSVNGSRRNSGSSLVSSSSASSNLSHLEEDSWILWGRIVNEWEDVRKKKEKQVKELVHKGIPHHFRAIVWQLLCSAQSMPIKDQYSELLKMTSPCEKLIRRDIARTYPEHNFFKEKDSLGQEVLFNVMKAYSLVDREVGYCQGSAFIVGLLLMQMPEEEAFCVFVKLMQDYRLRELFKPSMAELGLCMYQFECMIQEHLPELFVHFQSQSFHTSMYASSWFLTIFLTTFPLPIATRIFDIFMSEGLEIVFRVGLALLQMNQAELMQLDMEGMLQHFQKVIPHQFDGVPDKLIQAAYQVKYNSKKMKKLEKEYTTIKTKEMEEQVEIKRLRTENRLLKQRIETLEKHKCSSNYNEDFVLQLEKELVQARLSEAESQCALKEMQDKVLDIEKRNNSLPDENNIARLQEELIAVKLREAEAIMGLKELRQQVKDLEEHWQRHLARTTGRWKDPPKKNAMNELQDELMTIRLREAETQAEIREIKQRMMEMETQNQINSNHLRRAEQEVISLQEKVQYLSAQNKGLLTQLSEAKRKQAEIECKNKEEVMAVRLREADSIAAVAELRQHIAELEIQKEEGKLQGQLNKSDSNQYIGELKDQIAELNHELRCLKGQRGFSGQPPFDGIHIVNHLIGDDESFHSSDEDFIDNSLQETGVGFPLHGKSGSMSLDPAVADGSESETEDSVLETRESNQVVQKERPPRRRESYSTTV
With B3 the binding [1] was “binds”.

B4: Vps8 subunit of the CORVET complex (protein, UniProt Q8N3P4 1-1428)
chain: MENEPDHENVEQSLCAKTSEEELNKSFNLEASLSKFSYIDMDKELEFKNDLIDDKEFDIPQVDTPPTLESILNETDDEDESFILEDPTLLNIDTIDSHSYDTSSVASSDSGDRTNLKRKKKLPDSFSLHGSVMRHSLLKGISAQIVSAADKVDAGLPTAIAVSSLIAVGTSHGLALIFGKDQNQALRLCLGSTSVGGQYGAISALSINNDCSRLLCGFAKGQITMWDLASGKLLRSITDAHPPGTAILHIKFTDDPTLAICNDSGGSVFELTFKRVMGVRTCESRCLFSGSKGEVCCIEPLHSKPELKDHPITQFSLLAMASLTKILVIGLKPSLKVWMTFPYGRMDPSSVPLLAWHFVAVQNYVNPMLAFCRGDVVHFLLVKRDESGAIHVTKQKHLHLYYDLINFTWINSRTVVLLDSVEKLHVIDRQTQEELETVEISEVQLVYNSSHFKSLATGGNVSQALALVGEKACYQSISSYGGQIFYLGTKSVYVMMLRSWRERVDHLLKQDCLTEALALAWSFHEGKAKAVVGLSGDASKRKAIVADRMVEILFHYADRALKKCPDQGKIQVMEQHFQDMVPVIVDYCLLLQRKDLLFSQMYDKLSENSVAKGVFLECLEPYILSDKLVGITPQVMKDLIVHFQDKKLMENVEALIVHMDITSLDIQQVVLMCWENRLYDAMIYVYNRGMNEFISPMEKLFRVIAPPLNAGKTLTDEQVVMGNKLLVYISCCLAGRAYPLGDIPEDLVPLVKNQVFEFLIRLHSAEASPEEEIYPYIRTLLHFDTREFLNVLALTFEDFKNDKQAVEYQQRIVDILLKVMVENSDFTPSQVGCLFTFLARQLAKPDNTLFVNRTLFDQVLEFLCSPDDDSRHSERQQVLLELLQAGGIVQFEESRLIRMAEKAEFYQICEFMYEREHQYDKIIDCYLRDPLREEEVFNYIHNILSIPGHSAEEKQSVWQKAMDHIEELVSLKPCKAAELVATHFSGHIETVIKKLQNQVLLFKFLRSLLDPREGIHVNQELLQISPCITEQFIELLCQFNPTQVIETLQVLECYRLEETIQITQKYQLHEVTAYLLEKKGDIHGAFLIMLERLQSKLQEVTHQGENTKEDPSLKDVEDTMVETIALCQRNSHNLNQQQREALWFPLLEAMMAPQKLSSSAIPHLHSEALKSLTMQVLNSMAAFIALPSILQRILQDPVYGKGKLGEIQGLILGMLDTFNYEQTLLETTTSLLNQDLHWSLCNLRASVTRGLNPKQDYCSICLQQYKRRQEMADEIIVFSCGHLYHSFCLQNKECTVEFEGQTRWTCYKCSSSNKVGKLSENSSEIKKGRITPSQVKMSPSYHQSKGDPTAKKGTSEPVLDPQQIQAFDQLCRLYRGSSRLALLTELSQNRSSESYRPFSGSQSAPAFNSIFQNENFQLQLIPPPVTED
In the case of B4, the binding [1] is reported as “binds”.

B5: DENDD5A (protein, UniProt Q6IQ26 1-1287)
chain: MSGGGGGGGSAPSRFADYFVICGLDTETGLEPDELSALCQYIQASKARDGASPFISSTTEGENFEQTPLRRTFKSKVLARYPENVEWNPFDQDAVGMLCMPKGLAFKTQADPREPQFHAFIITREDGSRTFGFALTFYEEVTSKQICSAMQTLYHMHNAEYDVLHAPPADDRDQSSMEDGEDTPVTKLQRFNSYDISRDTLYVSKCICLITPMSFMKACRSVLEQLHQAVTSPQPPPLPLESYIYNVLYEVPLPPPGRSLKFSGVYGPIICQRPSTNELPLFDFPVKEVFELLGVENVFQLFTCALLEFQILLYSQHYQRLMTVAETITALMFPFQWQHVYVPILPASLLHFLDAPVPYLMGLHSNGLDDRSKLELPQEANLCFVDIDNHFIELPEDLPQFPNKLEFVQEVSEILMAFGIPPEGNLHCSESASKLKRLRASELVSDKRNGNIAGSPLHSYELLKENETIARLQALVKRTGVSLEKLEVREDPSSNKDLKVQCDEEELRIYQLNIQIREVFANRFTQMFADYEVFVIQPSQDKESWFTNREQMQNFDKASFLSDQPEPYLPFLSRFLETQMFASFIDNKIMCHDDDDKDPVLRVFDSRVDKIRLLNVRTPTLRTSMYQKCTTVDEAEKAIELRLAKIDHTAIHPHLLDMKIGQGKYEPGFFPKLQSDVLSTGPASNKWTKRNAPAQWRRKDRQKQHTEHLRLDNDQREKYIQEARTMGSTIRQPKLSNLSPSVIAQTNWKFVEGLLKECRNKTKRMLVEKMGREAVELGHGEVNITGVEENTLIASLCDLLERIWSHGLQVKQGKSALWSHLLHYQDNRQRKLTSGSLSTSGILLDSERRKSDASSLMPPLRISLIQDMRHIQNIGEIKTDVGKARAWVRLSMEKKLLSRHLKQLLSDHELTKKLYKRYAFLRCDDEKEQFLYHLLSFNAVDYFCFTNVFTTILIPYHILIVPSKKLGGSMFTANPWICISGELGETQIMQIPRNVLEMTFECQNLGKLTTVQIGHDNSGLYAKWLVEYVMVRNEITGHTYKFPCGRWLGKGMDDGSLERILVGELLTSQPEVDERPCRTPPLQQSPSVIRRLVTISPNNKPKLNTGQIQESIGEAVNGIVKHFHKPEKERGSLTLLLCGECGLVSALEQAFQHGFKSPRLFKNVFIWDFLEKAQTYYETLEKNEVVPEENWHTRARNFCRFVTAINNTPRNIGKDGKFQMLVCLGARDHLLHHWIALLADCPITAHMYEDVALIKDHTLVNSLIRVLQTLQEFNITLETSLVKGIDI
For B5, the binding [3] was “binds”.

No constants are given. Whether binding was seen depends on the method and setting. Binding seen in cells or lysates may run through a third protein. Here binding means that the protein was enriched with, or labelled near, the bait; the list need not be complete.
